Data taken from publication PMC3395832.
No constants are given. Whether binding was seen depends on the method and setting. Binding seen in cells or lysates may run through a third protein. Some entries that bind do so weakly or less than the wild type.

Sequences of proteins named here, by UniProt entry; tags and fusion partners are left off.
UniProt F5HCV3: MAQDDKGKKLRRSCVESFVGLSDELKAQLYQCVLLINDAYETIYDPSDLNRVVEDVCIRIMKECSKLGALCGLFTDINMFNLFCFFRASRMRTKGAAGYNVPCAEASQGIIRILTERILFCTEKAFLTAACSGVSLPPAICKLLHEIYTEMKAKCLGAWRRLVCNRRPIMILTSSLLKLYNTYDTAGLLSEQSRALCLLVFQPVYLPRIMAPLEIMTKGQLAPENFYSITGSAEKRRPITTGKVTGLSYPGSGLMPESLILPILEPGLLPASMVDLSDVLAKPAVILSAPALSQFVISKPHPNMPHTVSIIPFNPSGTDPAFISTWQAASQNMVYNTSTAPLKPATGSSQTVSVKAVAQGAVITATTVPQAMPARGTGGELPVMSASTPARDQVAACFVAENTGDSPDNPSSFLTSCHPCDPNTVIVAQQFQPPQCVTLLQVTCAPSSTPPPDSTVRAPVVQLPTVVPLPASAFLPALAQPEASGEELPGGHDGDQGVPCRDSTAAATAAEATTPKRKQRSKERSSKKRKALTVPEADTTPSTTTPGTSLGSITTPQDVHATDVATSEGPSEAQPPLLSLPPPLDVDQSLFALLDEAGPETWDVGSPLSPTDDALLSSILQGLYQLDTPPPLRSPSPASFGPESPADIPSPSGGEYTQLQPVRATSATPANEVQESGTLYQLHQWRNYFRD
UniProt Q13547: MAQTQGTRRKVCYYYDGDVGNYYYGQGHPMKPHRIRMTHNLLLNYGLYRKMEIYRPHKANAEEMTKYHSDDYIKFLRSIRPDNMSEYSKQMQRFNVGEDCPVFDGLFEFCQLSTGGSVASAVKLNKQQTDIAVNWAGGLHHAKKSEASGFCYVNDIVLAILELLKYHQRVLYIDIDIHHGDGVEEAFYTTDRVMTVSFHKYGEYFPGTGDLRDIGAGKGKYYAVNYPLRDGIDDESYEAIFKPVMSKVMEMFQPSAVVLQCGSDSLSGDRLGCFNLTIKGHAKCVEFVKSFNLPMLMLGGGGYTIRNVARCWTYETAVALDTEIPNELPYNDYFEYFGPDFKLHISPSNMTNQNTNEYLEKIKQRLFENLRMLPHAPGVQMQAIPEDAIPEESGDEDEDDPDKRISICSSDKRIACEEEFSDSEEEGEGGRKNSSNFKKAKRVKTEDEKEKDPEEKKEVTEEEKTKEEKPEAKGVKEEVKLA
UniProt P09874: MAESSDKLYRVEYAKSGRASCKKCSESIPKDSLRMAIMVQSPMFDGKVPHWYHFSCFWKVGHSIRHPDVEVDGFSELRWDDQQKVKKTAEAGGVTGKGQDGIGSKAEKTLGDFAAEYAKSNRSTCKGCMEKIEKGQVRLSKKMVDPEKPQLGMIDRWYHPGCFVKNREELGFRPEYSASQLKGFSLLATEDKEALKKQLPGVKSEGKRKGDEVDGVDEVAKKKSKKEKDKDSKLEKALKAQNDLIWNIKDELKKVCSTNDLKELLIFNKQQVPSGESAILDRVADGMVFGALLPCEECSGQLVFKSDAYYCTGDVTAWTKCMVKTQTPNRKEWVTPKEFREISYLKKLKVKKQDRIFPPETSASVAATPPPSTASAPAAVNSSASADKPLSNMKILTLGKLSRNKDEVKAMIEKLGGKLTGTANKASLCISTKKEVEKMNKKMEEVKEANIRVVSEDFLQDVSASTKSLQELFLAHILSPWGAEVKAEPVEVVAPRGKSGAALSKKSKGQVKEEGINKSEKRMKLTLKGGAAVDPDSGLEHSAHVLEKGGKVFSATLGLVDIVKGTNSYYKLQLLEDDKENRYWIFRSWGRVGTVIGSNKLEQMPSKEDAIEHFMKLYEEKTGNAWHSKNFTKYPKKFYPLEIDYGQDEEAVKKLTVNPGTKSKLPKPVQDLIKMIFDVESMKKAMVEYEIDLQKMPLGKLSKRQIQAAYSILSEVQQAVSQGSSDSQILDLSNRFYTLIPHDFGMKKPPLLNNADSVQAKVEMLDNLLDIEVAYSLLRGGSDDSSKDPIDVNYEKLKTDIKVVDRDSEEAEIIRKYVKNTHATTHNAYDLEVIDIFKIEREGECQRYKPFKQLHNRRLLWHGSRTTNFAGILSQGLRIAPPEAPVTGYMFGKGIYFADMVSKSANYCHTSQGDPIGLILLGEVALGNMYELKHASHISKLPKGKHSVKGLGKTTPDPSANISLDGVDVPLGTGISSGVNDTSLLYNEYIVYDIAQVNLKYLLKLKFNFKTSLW

Legend:
[1] = molecular target: FLAG-tagged KSHV replication and transcription activator (K-RTA), wild type (Kaposi's sarcoma-associated herpesvirus (KSHV)) (UniProt F5HCV3); experiment: co-IP
[2] = molecular target: K-RTA expressed from the KSHV genome in ERKV cells (Kaposi's sarcoma-associated herpesvirus (KSHV)) (UniProt F5HCV3); experiment: co-IP

HDAC1 (from UniProt Q13547 1-482) (enzyme)
binding [1]: binds

PARP1 (from UniProt P09874 1-1014) (enzyme)
binding [1]: binds
binding [2]: binds
